Laboratory results: article PMC4826439
These are yes or no findings as the source states them, for the method shown. Binding seen in cells or lysates may run through a third protein. A yes stands for co-enrichment or nearness to the bait. Other partners may have been found. A no says only that the protein was not detected with the bait.

By UniProt entry, the sequences of proteins in these tests, tags left out.
UniProt Q9Z148: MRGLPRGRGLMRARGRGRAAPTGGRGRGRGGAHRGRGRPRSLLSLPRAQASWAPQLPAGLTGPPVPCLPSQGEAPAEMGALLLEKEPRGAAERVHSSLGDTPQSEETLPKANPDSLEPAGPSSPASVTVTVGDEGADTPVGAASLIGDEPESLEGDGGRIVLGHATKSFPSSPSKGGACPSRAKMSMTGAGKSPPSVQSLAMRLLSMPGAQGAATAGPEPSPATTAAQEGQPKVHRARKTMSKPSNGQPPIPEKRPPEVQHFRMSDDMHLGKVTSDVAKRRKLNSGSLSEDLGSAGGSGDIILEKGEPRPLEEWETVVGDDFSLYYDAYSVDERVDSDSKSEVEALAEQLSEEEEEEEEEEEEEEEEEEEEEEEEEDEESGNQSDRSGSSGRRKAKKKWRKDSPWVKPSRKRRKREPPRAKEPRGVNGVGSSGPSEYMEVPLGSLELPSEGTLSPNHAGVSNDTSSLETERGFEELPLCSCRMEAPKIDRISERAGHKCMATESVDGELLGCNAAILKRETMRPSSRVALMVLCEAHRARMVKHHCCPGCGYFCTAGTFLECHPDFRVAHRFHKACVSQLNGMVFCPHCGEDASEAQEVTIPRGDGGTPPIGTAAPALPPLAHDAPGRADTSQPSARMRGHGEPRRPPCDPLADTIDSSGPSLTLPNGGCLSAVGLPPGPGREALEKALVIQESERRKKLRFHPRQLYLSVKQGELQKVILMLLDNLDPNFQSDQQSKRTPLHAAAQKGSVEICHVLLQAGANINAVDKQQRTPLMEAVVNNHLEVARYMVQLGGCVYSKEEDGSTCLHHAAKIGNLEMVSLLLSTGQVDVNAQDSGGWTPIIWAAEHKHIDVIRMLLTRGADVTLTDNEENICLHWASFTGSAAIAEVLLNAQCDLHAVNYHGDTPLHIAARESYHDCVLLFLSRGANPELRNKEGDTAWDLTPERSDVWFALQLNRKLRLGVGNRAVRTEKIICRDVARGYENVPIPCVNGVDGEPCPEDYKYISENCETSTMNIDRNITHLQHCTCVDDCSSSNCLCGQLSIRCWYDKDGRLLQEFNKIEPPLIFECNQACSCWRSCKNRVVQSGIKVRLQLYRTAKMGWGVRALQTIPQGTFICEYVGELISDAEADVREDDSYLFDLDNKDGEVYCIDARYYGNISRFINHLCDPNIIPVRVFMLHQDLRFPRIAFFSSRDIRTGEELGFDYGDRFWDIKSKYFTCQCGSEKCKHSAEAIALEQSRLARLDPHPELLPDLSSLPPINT
UniProt Q9CWR8: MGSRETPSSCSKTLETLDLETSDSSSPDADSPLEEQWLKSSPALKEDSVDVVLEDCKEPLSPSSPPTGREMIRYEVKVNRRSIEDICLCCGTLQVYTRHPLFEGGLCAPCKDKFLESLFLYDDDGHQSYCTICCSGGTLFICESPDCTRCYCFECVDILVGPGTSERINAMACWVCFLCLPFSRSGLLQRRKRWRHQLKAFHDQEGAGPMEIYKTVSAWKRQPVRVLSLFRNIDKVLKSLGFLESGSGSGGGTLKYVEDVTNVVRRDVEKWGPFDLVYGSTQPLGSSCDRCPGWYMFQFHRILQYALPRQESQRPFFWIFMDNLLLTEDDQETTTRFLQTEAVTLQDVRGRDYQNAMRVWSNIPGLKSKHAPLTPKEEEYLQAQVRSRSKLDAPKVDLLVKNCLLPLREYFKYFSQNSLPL
UniProt P13864: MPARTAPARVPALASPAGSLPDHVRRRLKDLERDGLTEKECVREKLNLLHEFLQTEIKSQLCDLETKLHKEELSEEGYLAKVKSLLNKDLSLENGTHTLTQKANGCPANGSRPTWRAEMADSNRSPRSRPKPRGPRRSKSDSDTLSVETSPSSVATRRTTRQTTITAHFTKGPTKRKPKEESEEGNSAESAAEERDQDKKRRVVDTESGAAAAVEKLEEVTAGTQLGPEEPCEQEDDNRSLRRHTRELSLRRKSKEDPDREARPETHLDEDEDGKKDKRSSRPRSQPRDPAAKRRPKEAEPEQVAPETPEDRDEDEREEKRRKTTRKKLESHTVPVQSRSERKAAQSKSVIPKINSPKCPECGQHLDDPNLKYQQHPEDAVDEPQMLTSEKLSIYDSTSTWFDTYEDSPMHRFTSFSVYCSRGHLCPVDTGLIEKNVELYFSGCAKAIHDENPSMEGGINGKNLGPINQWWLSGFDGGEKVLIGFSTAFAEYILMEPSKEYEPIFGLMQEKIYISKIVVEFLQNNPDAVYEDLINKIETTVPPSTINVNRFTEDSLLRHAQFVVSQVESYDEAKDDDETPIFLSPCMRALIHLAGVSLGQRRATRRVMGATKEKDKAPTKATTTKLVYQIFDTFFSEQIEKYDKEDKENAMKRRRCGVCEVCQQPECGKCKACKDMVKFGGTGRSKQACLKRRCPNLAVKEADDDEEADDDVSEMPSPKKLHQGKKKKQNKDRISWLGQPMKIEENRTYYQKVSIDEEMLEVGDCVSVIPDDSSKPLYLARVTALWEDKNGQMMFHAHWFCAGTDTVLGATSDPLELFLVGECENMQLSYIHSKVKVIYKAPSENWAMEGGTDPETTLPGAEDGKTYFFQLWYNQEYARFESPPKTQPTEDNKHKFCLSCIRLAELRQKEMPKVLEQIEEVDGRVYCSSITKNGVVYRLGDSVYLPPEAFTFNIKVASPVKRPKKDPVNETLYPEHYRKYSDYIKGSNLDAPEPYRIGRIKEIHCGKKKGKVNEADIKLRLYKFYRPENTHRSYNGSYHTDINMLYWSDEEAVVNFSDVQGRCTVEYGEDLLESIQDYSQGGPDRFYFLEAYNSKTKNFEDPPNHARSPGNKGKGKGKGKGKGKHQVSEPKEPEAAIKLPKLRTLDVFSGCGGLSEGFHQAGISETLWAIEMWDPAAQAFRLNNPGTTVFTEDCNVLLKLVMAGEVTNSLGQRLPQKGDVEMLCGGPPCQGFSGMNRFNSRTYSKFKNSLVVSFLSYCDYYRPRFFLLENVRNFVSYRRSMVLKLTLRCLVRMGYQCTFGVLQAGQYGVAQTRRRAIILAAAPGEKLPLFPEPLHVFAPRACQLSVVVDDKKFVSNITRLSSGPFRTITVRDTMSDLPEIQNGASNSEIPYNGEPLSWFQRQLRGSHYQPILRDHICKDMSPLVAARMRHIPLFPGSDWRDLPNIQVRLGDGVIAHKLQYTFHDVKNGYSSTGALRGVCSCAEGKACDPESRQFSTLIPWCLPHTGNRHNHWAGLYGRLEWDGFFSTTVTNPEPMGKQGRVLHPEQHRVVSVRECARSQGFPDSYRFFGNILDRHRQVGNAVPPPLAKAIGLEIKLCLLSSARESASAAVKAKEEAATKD

Target: G9a (EHMT2), histone H3 lysine 9 methylase (mouse) (UniProt Q9Z148)
Assay: affinity purification with mass spectrometry; G9a complex purified from ESCs, co-purifying proteins identified by mass spectrometry

Row | binding | Substance
1 | binds | DNMT3L (from UniProt Q9CWR8 1-421)
2 | binds | DNMT3B (from UniProt O88509 1-859)
3 | no binding | DNMT1 (from UniProt P13864 1-1620)
